We go through one sequence from publication PMC8779605.

In this data set the test system is RNS1-DBD (Metarhizium robertsii). Nature of the data set: EMSA. To be noted: LightShift Chemiluminescent EMSA kit (Thermo Fisher); pH and temperature not stated; recombinant protein. On the technique in general: Mobility shift assays separate free from complexed probe on a gel.

Construct, isoform or probe ends are uncertain for at least one entry. No signal at the amounts used counts as a negative.

With “TGCCCGTTGGGTTTTACGACAAGACCTTCATTGGCCGGAGCTCTCGTCT (double strand) [AbaA promoter BM2 probe]”, the binding result was “no binding”.
